Laboratory results from article doi:10.1101/2025.07.22.666133.

Amino acid sequences for entries named in this document (tags omitted). A change or cut given only in a name is not applied to a line headed by its entry.
UniProt P02545: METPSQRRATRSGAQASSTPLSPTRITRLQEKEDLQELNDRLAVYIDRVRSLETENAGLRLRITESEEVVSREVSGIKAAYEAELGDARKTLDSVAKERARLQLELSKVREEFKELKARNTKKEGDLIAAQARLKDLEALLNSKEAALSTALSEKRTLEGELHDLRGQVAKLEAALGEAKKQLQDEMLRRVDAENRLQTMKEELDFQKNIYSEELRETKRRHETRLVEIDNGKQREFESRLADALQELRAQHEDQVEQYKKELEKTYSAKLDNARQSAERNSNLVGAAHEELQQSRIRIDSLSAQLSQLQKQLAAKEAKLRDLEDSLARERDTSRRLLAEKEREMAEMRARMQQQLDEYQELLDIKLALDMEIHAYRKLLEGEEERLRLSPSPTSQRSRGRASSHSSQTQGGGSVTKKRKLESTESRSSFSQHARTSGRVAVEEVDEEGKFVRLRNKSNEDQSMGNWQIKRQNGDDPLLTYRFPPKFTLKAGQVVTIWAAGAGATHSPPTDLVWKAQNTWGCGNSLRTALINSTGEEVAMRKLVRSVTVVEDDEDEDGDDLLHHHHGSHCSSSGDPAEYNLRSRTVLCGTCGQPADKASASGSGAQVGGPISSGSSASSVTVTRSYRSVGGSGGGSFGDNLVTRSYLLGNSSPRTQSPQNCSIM

Target: FLAG-tagged full-length human lamin A (human) (UniProt P02545)
Test: co-IP

- binding: binds
B1: Filamin A-interacting protein 1-like (protein, UniProt Q6P6L0 1-1131)
chain: MRSRSSNAEGSAPKQIPRHSKFQDSIQDMKHRTHKKDPSCESEGVLPRPVSEKSHTGKGHHTEDLSRDDLLFLLSILEGELQARDEVIGILRAEKIDLALLEAQYGFVTPKKVLEALQRDAFQAKSAPWQEDIYEKPMNELDKVVEKHKESHRRILEQLLMVERSHRQTIMEMEEEKRKHKEYMKKSDEFINLLEQECERLKKLIDQETASQEKKEQEKEKRIKTLKEELTKLKSFALMVVDEQQRLTAQLALQRQKIQALTTSAKETQGKLALAEARAQEEEQKATRLEKELQTQTTEFHQNQDKIMAKLTNEDSQNRQLRQKLAALSRQIDELEETNRSLRKAEEELQDIKDKINKGEYGNSGIMDEVDELRKRVLDMEGKDEELIKMEEQCRDLNKRLEKETVQSKDFKLEVDKLSVRITALEKLEDALDKSKQECYSLKCNLEKEKMTTKQLSEELESLNARIKELEAIESRLEKTEITLKDDLTKLKTLTVMLVDERKTMSEKLKQTEDKLQSTTSQLQAEQNKVTTVTEKLIEETKRALKSKTDAEEKMYSVTKERDDLRNKLKAEEEKGHDLLSKVTILKNRLQSLEAIEKDFVKNKLNQDSSKSTAALHQENNKIKELSQEVENLKLKLKDMKAIEDDLMKTEDEYETLERRYANERDKAQFLSQELEHAKMELAKYKLAEKTESSHEQWLFRRLQEEEAKSGHLSREVDALKEKIHEYMATEDLICHLQGDHSLLQKKLNQQENRNRDLGREIENLTKELERYRHFSKSLRPSLNGRRISDPQVFSKEVQTEAADSEPPDYKSLIPLERAVINGQFYEENEDQDDDPNEEESVLSFRCSQSSSLPMNRKLWIPWMKSKEGHPQNGKIQTKSNGNFVQPGDLVLSHTPGQPLHIKVTPDHIQNTATLEITSPTTESPHSYTSTAVIPNCGTPKQRITILQNASITPIKSKSSTESLMNLEQSMSPVTMATFARAQTPESCGSVTPERTMSPIQVLAMTGSPSSPEQGCSPEPIEISAKHAIFRVSPDRQSSWQFQRSNSNSSSVITTEDNKIHIHLGSPYMQAVAGPMRPASPSAPLQDNRTQGLTNGALNKTTNKVTSSITITPTATPLPRQSQITVSNIYN

No constants are given. Whether binding was seen depends on the method and setting. Binding seen in cells or lysates may run through a third protein. Binding can be weak; no strength is given.
